{"sequences": {"note": "The chains behind the UniProt entries cited, without tags or fusion partners. Where a name states a change or a piece, a line headed by the entry shows the natural chain unless it says otherwise. Residues count along the entry.", "UniProt Q9RA63": "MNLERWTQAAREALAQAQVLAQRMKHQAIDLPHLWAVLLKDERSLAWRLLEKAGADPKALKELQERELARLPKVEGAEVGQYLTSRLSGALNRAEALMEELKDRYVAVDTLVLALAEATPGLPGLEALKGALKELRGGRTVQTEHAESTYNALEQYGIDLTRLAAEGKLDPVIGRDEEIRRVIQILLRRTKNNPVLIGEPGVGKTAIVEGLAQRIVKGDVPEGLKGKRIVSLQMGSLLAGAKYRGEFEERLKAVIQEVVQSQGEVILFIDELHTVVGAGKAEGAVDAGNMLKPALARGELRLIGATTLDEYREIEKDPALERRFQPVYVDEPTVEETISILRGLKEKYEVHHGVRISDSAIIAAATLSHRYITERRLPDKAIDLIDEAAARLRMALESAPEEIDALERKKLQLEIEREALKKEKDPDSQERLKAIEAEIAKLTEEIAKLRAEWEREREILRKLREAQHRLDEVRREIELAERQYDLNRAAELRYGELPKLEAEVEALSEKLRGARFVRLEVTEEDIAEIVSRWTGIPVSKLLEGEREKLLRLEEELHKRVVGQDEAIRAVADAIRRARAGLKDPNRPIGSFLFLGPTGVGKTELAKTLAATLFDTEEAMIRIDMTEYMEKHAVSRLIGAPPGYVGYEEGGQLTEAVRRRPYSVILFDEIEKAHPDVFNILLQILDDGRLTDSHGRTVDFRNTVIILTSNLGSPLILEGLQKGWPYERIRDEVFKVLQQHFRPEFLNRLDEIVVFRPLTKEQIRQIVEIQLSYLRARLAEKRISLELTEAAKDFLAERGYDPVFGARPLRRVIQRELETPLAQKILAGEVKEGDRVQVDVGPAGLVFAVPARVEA", "ΔNClpB, Thermus thermophilus ClpB lacking the N-terminal domain": "residues 141-854 of Q9RA63"}, "source": "paper PMC8056383", "key": {"[1]": {"target": "ΔNClpB, Thermus thermophilus ClpB lacking the N-terminal domain (Thermus thermophilus) (UniProt Q9RA63)", "experiment": "native gel or EMSA; native polyacrylamide gel electrophoresis; ΔNClpB and the isolated NTD mixed together at 40 μM ΔNClpB and 650 μM NTD; both purified"}, "[2]": {"target": "ΔNClpB, Thermus thermophilus ClpB lacking the N-terminal domain (Thermus thermophilus) (UniProt Q9RA63)", "experiment": "SEC; ΔNClpB and the isolated NTD mixed together at 40 μM ΔNClpB and 650 μM NTD; both purified"}}, "note": "These are yes or no findings as the source states them, for the method shown.", "data": [{"substance": "isolated N-terminal domain of ClpB (residues 1–141) (from UniProt Q9RA63 1-141) (domain or fragment)", "values": [{"measurement": "binding", "setting": "[1]", "result": "no binding (tested: 40 μM ΔNClpB and 650 μM NTD)"}, {"measurement": "binding", "setting": "[2]", "result": "no binding (tested: 40 μM ΔNClpB and 650 μM NTD)"}]}]}
